Measurements taken from patent US9931313B2, “Methods of treating proliferative disorders with malate or derivatives thereof” (Beth Israel Deaconess Medical Center, Inc., priority 2012, dated 2018).
At least one compound was matched to its structure with a doubt left.

System: A549 cells
Assay: Survival of A549 cells in Hams/F12 medium without glucose, pyruvate and glutamine
Format: cell-based, human
Conditions: control and ME2 knockdown A549 cells, medium without pyruvate, glutamine
Protocol: A549 control or ME2 knockdown cells were grown in Hams/F12 based medium without glucose, pyruvate and glutamine. Different concentrations of glutamine were supplemented as indicated. The alive cells were stained with Nexin/7-ADD and analyzed by FACS. B: Exogenous supplementation of pyruvate can rescue ME2 depletion induced cell death. A549 control or ME2 knockdown cells were grown in Hams/F12 based medium without glucose, pyruvate and glutamine. Different concentrations of pyruvate were supplemented as indicated. The alive cells were stained with Nexin/7-ADD and analyzed by FACS. C and D: The effect of ME2 knockdown on de novo synthesis of PC is greater with ^13C6-Glc than with ^13C5, 1^5N2-Gln as tracer, as analyzed by FT-ICR-MS. E: Inhibition of ^13C3-citrate synthesis from ^13C6-Glc by ME2 knockdown, as determined by GC-MS. […] G and H: Effects of ME2 knockdown on the levels and fractional distribution of ^13C isotopologues of malate, as analyzed by GC-MS; rectangles depict ^13C2- (m2) and ^13C3-malate (m3) species as markers of the first turn of the Krebs cycle without and with pyruvate carboxylation input, respectively. […]

CC(=O)C(=O)O [Pyruvate, pyruvate]
rescue of cell survival by supplementation: rescued both ME2 knockdown and control cells
